Data taken from patent US20140038203A1, “METHODS FOR DETECTING OR PREDICTING KIDNEY DISEASE” (MUSC FOUNDATION FOR RESEARCH DEVELOPMENT, priority 2012, published 2014).

B1: Vitamin D-binding protein: urinary protein, Uniprot P02774 (protein, UniProt P02774 17-474, looked up)
Vitamin D-binding protein: LERGRDYEKNKVCKEFSHLGKEDFTSLSLVLYSRKFPSGTFEQVSQLVKEVVSLTEACCAEGADPDCYDTRTSALSAKSCESNSPFPVHPGTAECCTKEGLERKLCMAALKHQPQEFPTYVEPTNDEICEAFRKDPKEYANQFMWEYSTNYGQAPLSLLVSYTKSYLSMVGSCCTSASPTVCFLKERLQLKHLSLLTTLSNRVCSQYAAYGEKKSRLSNLIKLAQKVPTADLEDVLPLAEDITNILSKCCESASEDCMAKELPEHTVKLCDNLSTKNSKFEDCCQEKTAMDVFVCTYFMPAAQLPELPDVELPTNKDVCDPGNTKVMDKYTFELSRRTHLPEVFLSKVLEPTLKSLGECCDVEDSTTCFNAKGPLLKKELSSFIDKGQELCADYSENTFTEYKKKLAERLKAKLPDATPTELAKLVNKHSDFASNCCSINSPPLYCDSEIDAELKNIL
B2: Cystatin-8: urinary protein, Uniprot P04080 (protein, UniProt P04080 1-98, looked up)
Cystatin-B: MMCGAPSATQPATAETQHIADQVRSQLEEKENKKFPVFKAVSFKSQVVAGTNYFIKVHVGDEDFVHLRVFQSLPHENKPLTLSNYQTNKAKHDELTYF
B3: Brain acid soluble protein 1: urinary protein, Uniprot P80723 (protein, UniProt P80723 2-227, looked up)
Brain acid soluble protein 1: GGKLSKKKKGYNVNDEKAKEKDKKAEGAATEEEGTPKESEPQAAAEPAEAKEGKEKPDQDAEGKAEEKEGEKDAAAAKEEAPKAEPEKTEGAAEAKAEPPKAPEQEQAAPGPAAGGEAPKAAEAAAAPAESAAPAAGEEPSKEEGEPKKTEAPAAPAAQETKSDGAPASDSKPGSSEAAPSSKETPAATEAPSSTPKAQGPAASAEEPKPVEAPAANSDQTVTVKE
B4: Zinc-alpha-2-glycoprotein: urinary protein, Uniprot P25311 (protein, UniProt P25311 21-298, looked up)
Zinc-alpha-2-glycoprotein: QENQDGRYSLTYIYTGLSKHVEDVPAFQALGSLNDLQFFRYNSKDRKSQPMGLWRQVEGMEDWKQDSQLQKAREDIFMETLKDIVEYYNDSNGSHVLQGRFGCEIENNRSSGAFWKYYYDGKDYIEFNKEIPAWVPFDPAAQITKQKWEAEPVYVQRAKAYLEEECPATLRKYLKYSKNILDRQDPPSVVVTSHQAPGEKKKLKCLAYDFYPGKIDVHWTRAGEVQEPELRGDVLHNGNGTYQSWVVVAVPPQDTAPYSCHVQHSSLAQPLVVPWEAS
B5: Pigment epithelium-derived factor: urinary protein, Uniprot P36955 (protein, UniProt P36955 20-418, looked up)
Pigment epithelium-derived …: QNPASPPEEGSPDPDSTGALVEEEDPFFKVPVNKLAAAVSNFGYDLYRVRSSTSPTTNVLLSPLSVATALSALSLGAEQRTESIIHRALYYDLISSPDIHGTYKELLDTVTAPQKNLKSASRIVFEKKLRIKSSFVAPLEKSYGTRPRVLTGNPRLDLQEINNWVQAQMKGKLARSTKEIPDEISILLLGVAHFKGQWVTKFDSRKTSLEDFYLDEERTVRVPMMSDPKAVLRYGLDSDLSCKIAQLPLTGSMSIIFFLPLKVTQNLTLIEESLTSEFIHDIDRELKTVQAVLTVPKLKLSYEGEVTKSLQEMKLQSLFDSPDFSKITGKPIKLTQVEHRAGFEWNEDGAGTTPSPGLQPAHLTFPLDYHLNQPFIFVLRDTDTGALLFIGKILDPRGP
B6: Fatty acid-binding protein, adipocyte: urinary protein, Uniprot P15090 (protein, UniProt P15090 2-132, looked up)
Fatty acid-binding protein, …: CDAFVGTWKLVSSENFDDYMKEVGVGFATRKVAGMAKPNMIISVNGDVITIKSESTFKNTEISFILGQEFDEVTADDRKVKSTITLDGGVLVHVQKWDGKSTTIKRKREDDKLVVECVMKGVTSTRVYERA
B7: Alpha-1-acid glycoprotein 2: urinary protein, Uniprot P19652 (protein, UniProt P19652 19-201, looked up)
Alpha-1-acid glycoprotein 2: QIPLCANLVPVPITNATLDRITGKWFYIASAFRNEEYNKSVQEIQATFFYFTPNKTEDTIFLREYQTRQNQCFYNSSYLNVQRENGTVSRYEGGREHVAHLLFLRDTKTLMFGSYLDDEKNWGLSFYADKPETTKEQLGEFYEALDCLCIPRSDVMYTDWKKDKCEPLEKQHEKERKQEEGES
B8: Keratin, type II cytoskeletal 5: urinary protein, Uniprot P13647 (protein, UniProt P13647 1-590, looked up)
Keratin, type II cytoskeletal …: MSRQSSVSFRSGGSRSFSTASAITPSVSRTSFTSVSRSGGGGGGGFGRVSLAGACGVGGYGSRSLYNLGGSKRISISTSGGSFRNRFGAGAGGGYGFGGGAGSGFGFGGGAGGGFGLGGGAGFGGGFGGPGFPVCPPGGIQEVTVNQSLLTPLNLQIDPSIQRVRTEEREQIKTLNNKFASFIDKVRFLEQQNKVLDTKWTLLQEQGTKTVRQNLEPLFEQYINNLRRQLDSIVGERGRLDSELRNMQDLVEDFKNKYEDEINKRTTAENEFVMLKKDVDAAYMNKVELEAKVDALMDEINFMKMFFDAELSQMQTHVSDTSVVLSMDNNRNLDLDSIIAEVKAQYEEIANRSRTEAESWYQTKYEELQQTAGRHGDDLRNTKHEISEMNRMIQRLRAEIDNVKKQCANLQNAIADAEQRGELALKDARNKLAELEEALQKAKQDMARLLREYQELMNTKLALDVEIATYRKLLEGEECRLSGEGVGPVNISVVTSSVSSGYGSGSGYGGGLGGGLGGGLGGGLAGGSSGSYYSSSSGGVGLGGGLSVGGSGFSASSGRGLGVGFGSGGGSSSSVKFVSTTSSSRKSFKS
B9: Keratin, type II cytoskeletal 1: urinary protein, Uniprot P04264 (protein, UniProt P04264 2-644, looked up)
Keratin, type II cytoskeletal …: SRQFSSRSGYRSGGGFSSGSAGIINYQRRTTSSSTRRSGGGGGRFSSCGGGGGSFGAGGGFGSRSLVNLGGSKSISISVARGGGRGSGFGGGYGGGGFGGGGFGGGGFGGGGIGGGGFGGFGSGGGGFGGGGFGGGGYGGGYGPVCPPGGIQEVTINQSLLQPLNVEIDPEIQKVKSREREQIKSLNNQFASFIDKVRFLEQQNQVLQTKWELLQQVDTSTRTHNLEPYFESFINNLRRRVDQLKSDQSRLDSELKNMQDMVEDYRNKYEDEINKRTNAENEFVTIKKDVDGAYMTKVDLQAKLDNLQQEIDFLTALYQAELSQMQTQISETNVILSMDNNRSLDLDSIIAEVKAQYEDIAQKSKAEAESLYQSKYEELQITAGRHGDSVRNSKIEISELNRVIQRLRSEIDNVKKQISNLQQSISDAEQRGENALKDAKNKLNDLEDALQQAKEDLARLLRDYQELMNTKLALDLEIATYRTLLEGEESRMSGECAPNVSVSVSTSHTTISGGGSRGGGGGGYGSGGSSYGSGGGSYGSGGGGGGGRGSYGSGGSSYGSGGGSYGSGGGGGGHGSYGSGSSSGGYRGGSGGGGGGSSGGRGSGGGSSGGSIGGRGSSSGGVKSSGGSSSVKFVSTTYSGVTR
B10: Apolipoprotein A-IV: urinary protein, Uniprot P06727 (protein, UniProt P06727 21-396, looked up)
Apolipoprotein A-IV: EVSADQVATVMWDYFSQLSNNAKEAVEHLQKSELTQQLNALFQDKLGEVNTYAGDLQKKLVPFATELHERLAKDSEKLKEEIGKELEELRARLLPHANEVSQKIGDNLRELQQRLEPYADQLRTQVSTQAEQLRRQLTPYAQRMERVLRENADSLQASLRPHADELKAKIDQNVEELKGRLTPYADEFKVKIDQTVEELRRSLAPYAQDTQEKLNHQLEGLTFQMKKNAEELKARISASAEELRQRLAPLAEDVRGNLRGNTEGLQKSLAELGGHLDQQVEEFRRRVEPYGENFNKALVQQMEQLRQKLGPHAGDVEGHLSFLEKDLRDKVNSFFSTFKEKESQDKTLSLPELEQQQEQQQEQQQEQVQMLAPLES
B11: Coactosin-like protein: urinary protein, Uniprot Q14019 (protein, UniProt Q14019 2-142, looked up)
Coactosin-like protein: ATKIDKEACRAAYNLVRDDGSAVIWVTFKYDGSTIVPGEQGAEYQHFIQQCTDDVRLFAFVRFTTGDAMSKRSKFALITWIGENVSGLQRAKTGTDKTLVKEVVQNFAKEFVISDRKELEEDFIKSELKKAGGANYDAQTE
B12: Phosphatidylethanolamine-binding pritein 1: urinary protein, Uniprot P30086 (protein, UniProt P30086 2-187, looked up)
Phosphatidylethanolamine-bindi …: PVDLSKWSGPLSLQEVDEQPQHPLHVTYAGAAVDELGKVLTPTQVKNRPTSISWDGLDSGKLYTLVLTDPDAPSRKDPKYREWHHFLVVNMKGNDISSGTVLSDYVGSGPPKGTGLHRYVWLVYEQDRPLKCDEPILSNRSGDHRGKFKVASFRKKYELRAPVAGTCYQAEWDDYVPKLYEQLSGK

Experiment: RRT study: LC-MS/MS urinary proteomics, AKI after cardiac surgery, RRT vs No RRT
Design: species or system human
Conditions: RRT vs No RRT; positive = elevated in RRT group
With B1 the “Mean Fold Change” value was 12.11. For B2, the “Mean Fold Change” value was 11.53. With B3 the “Mean Fold Change” value was 5.823. For B4, the “Mean Fold Change” value was 2.041. For B5, the “Mean Fold Change” value was 9.084. For B6, the “Mean Fold Change” value was 1.598. In the case of B7, the “Mean Fold Change” value is reported as 2.62. For B8, the “Mean Fold Change” value was −1.736. With B9 the “Mean Fold Change” value was −1.902. With B10 the “Mean Fold Change” value was 9.086.

Same assay, conditions: direction of urinary abundance, patients who did vs did not require RRT/dialysis
With B1 the “Up or Down” value was “Up”. For B11, the “Up or Down” value was “Up”. In the case of B3, the “Up or Down” value is reported as “Up”. In the case of B4, the “Up or Down” value is reported as “Up”. For B5, the “Up or Down” value was “Up”. In the case of B6, the “Up or Down” value is reported as “Up”. With B7 the “Up or Down” value was “Up”. For B8, the “Up or Down” value was “Down”. In the case of B9, the “Up or Down” value is reported as “Down”. In the case of B10, the “Up or Down” value is reported as “Up”.

Same assay, conditions: patients who did vs did not require RRT/dialysis; read with the Up or Down column
With B1 the “Mean Fold Change” value was 24.22. With B3 the “Mean Fold Change” value was 14.56. In the case of B4, the “Mean Fold Change” value is reported as 2.449. In the case of B5, the “Mean Fold Change” value is reported as 45.42. For B6, the “Mean Fold Change” value was 7.99. For B7, the “Mean Fold Change” value was 2.62. For B8, the “Mean Fold Change” value was 3.473. With B9 the “Mean Fold Change” value was 1.902. With B10 the “Mean Fold Change” value was 54.52.

Same assay, conditions: urine; AKI patients who did not require RRT (n=6)
For B1, the “Mean No RRT” value was 4.51 normalized spectral counts. With B2 the “Mean No RRT” value was 0.43 normalized spectral counts. In the case of B3, the “Mean No RRT” value is reported as 0.87 normalized spectral counts. For B4, the “Mean No RRT” value was 112.02 normalized spectral counts. In the case of B5, the “Mean No RRT” value is reported as 2.50 normalized spectral counts. For B6, the “Mean No RRT” value was 6.25 normalized spectral counts. For B7, the “Mean No RRT” value was 18.15 normalized spectral counts. In the case of B8, the “Mean No RRT” value is reported as 5.74 normalized spectral counts. For B9, the “Mean No RRT” value was 35.85 normalized spectral counts. For B10, the “Mean No RRT” value was 2.36 normalized spectral counts.

Same assay, conditions: urine; AKI patients who required RRT (n=6)
With B1 the “Mean RRT” value was 54.58 normalized spectral counts. For B12, the “Mean RRT” value was 5.90 normalized spectral counts. In the case of B11, the “Mean RRT” value is reported as 3.70 normalized spectral counts. In the case of B2, the “Mean RRT” value is reported as 4.94 normalized spectral counts. With B3 the “Mean RRT” value was 5.05 normalized spectral counts. In the case of B4, the “Mean RRT” value is reported as 228.64 normalized spectral counts. For B5, the “Mean RRT” value was 22.71 normalized spectral counts. For B6, the “Mean RRT” value was 9.99 normalized spectral counts. In the case of B7, the “Mean RRT” value is reported as 47.56 normalized spectral counts. In the case of B8, the “Mean RRT” value is reported as 2.16 normalized spectral counts. For B9, the “Mean RRT” value was 18.85 normalized spectral counts. For B10, the “Mean RRT” value was 21.45 normalized spectral counts.
